# PubChem BioAssay AID463205 (Broad Institute, 2010)
# In all, about 2,400 compounds went through this assay and about 20 (0.8%) were called active.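 The calls were made as follows: active = AC50 no more than ten times the highest tested concentration, or full inhibition at every dose giving a flat fit (cut at about 30 µM in these data); inconclusive = flat fit with activity between 30% and 70%, or poor-quality invalid fit; inactive = AC50 more than ten times the top tested dose.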 This is one part of the list.
# Assay: luciferase-based ADP detection interference – biochemical, luminescence, cell-free, homogeneous, artefact control for GSK-3a inhibitor project, dose response (AID 463205);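 also: kinase-free counter-screen against the ADP-Glo detection reagents only; potency is for inhibitors that reduce the luminescence signal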
# Settings: Cell-free ADP-Glo detection reagents, 5 uM ADP
row,SMILES,AC50
1,COc1cc(/C=N/NC(=O)c2ccc(COc3ccccc3Cl)o2)cc(Br)c1O,inactive: > 30 µM
2,O=C(O)c1ccc(N=c2oc3cc(O)ccc3cc2C(=O)NCc2ccccc2)cc1,inactive: > 30 µM
3,COc1ccc(C(=O)Nc2nc(C)c(C)s2)cc1OC,inactive: > 30 µM
4,COc1ccc(OC)c(S(=O)(=O)N2CCN(C(=O)c3cc(C4CC4)nn3-c3ccccc3)CC2)c1,inactive: > 30 µM
5,CCCOc1cc2c(C#N)c(N3CCCC3)nc(N)c2c(N)n1,inactive: > 30 µM
6,Cc1cc(OC(=O)c2c(C)cc(OC(=O)c3c(C)cc(O)cc3O)cc2O)cc(O)c1C(=O)O,inactive: > 30 µM
7,Cc1nc(SCCC(C)C)c([N+](=O)[O-])[nH]1,inactive: > 30 µM
8,O=C(N/N=C/c1cn[nH]c1-c1ccccc1)c1ccco1,inactive: > 30 µM
9,COc1ccccc1N=c1oc2c(OC)cccc2cc1C(=O)NCc1ccco1,inactive: > 30 µM
10,COc1ccc(CC(=O)N2CCOCC2)cc1,inactive: > 30 µM
11,CC(=O)Nc1ccc(S(=O)(=O)NC(C)c2ccncc2)cc1 (stereo unspecified),inactive: > 30 µM
12,CCN1/C(=C/c2ccc3ccccc3[n+]2CC)C=Cc2ccccc21,inactive: > 30 µM
13,Cc1cc(-c2ccccc2)c2c3c(c(-c4ccccc4)n2n1)c(=O)n(C)c(=O)n3C,inactive: > 30 µM
14,c1csc(-c2nn3cnnc3c3ccccc23)c1,inactive: > 30 µM
15,CC(C)c1ccc(/C=N/NC(=O)c2nnn(-c3nonc3N)c2CN(C)C2CCCCC2)cc1,inactive: > 30 µM
16,S=C(Nc1ccc(Cl)cc1)Nc1cccc2cnccc12,inactive: > 30 µM
17,CC(C)(C)C(=O)/C=c1\[nH]c(=O)/c(=C\c2ccc(F)cc2)s1,inactive: > 30 µM
18,COc1cc(C(=O)NCCC(=O)NCCN2CCOCC2)cc(OC)c1OC,inactive: > 30 µM
19,O=C(C1CCC1)N1CCC(c2nc3c(nnn3Cc3c(F)cccc3Cl)c(=O)[nH]2)CC1,inactive: > 30 µM
20,COC(=O)C1=C(C)Nc2ncnn2C1c1ccco1 (stereo unspecified),inactive: > 30 µM
21,Cc1ccnc(NC(=O)Cc2c(F)cccc2Cl)c1,inactive: > 30 µM
22,COC(=O)c1c(C(C)=O)cnc2ccc(Br)cc12,inactive: > 30 µM
23,COc1cc(CN2CCN(Cc3ccc(C)cc3)CC2)c([N+](=O)[O-])cc1OC,inactive: > 30 µM

# Single entries from the entries so far:
# In AC50, `CC(=O)Nc1ccc(S(=O)(=O)NC(C)c2ccncc2)cc1` (stereo unspecified) has inactive: > 30 µM
# In AC50, `COc1cc(C(=O)NCCC(=O)NCCN2CCOCC2)cc(OC)c1OC` has inactive: > 30 µM

# Next compounds.

row,SMILES,AC50
1,COc1ccc2ccccc2c1C1CC(=O)N2CN(Cc3ccco3)CSC2=C1C#N (stereo unspecified),inactive: > 30 µM
2,CC1(C)Oc2ccc3ccc(=O)oc3c2-c2cn[nH]c21,inactive: > 30 µM
3,CC(C)c1ccc(NC(=O)CSc2n[nH]c(=O)n2-c2ccc3c(c2)OCCO3)cc1,inactive: > 30 µM
4,N#CC1=C2SCN(Cc3ccccc3)CN2C(=O)CC1c1ccc2c(c1)OCO2 (stereo unspecified),inactive: > 30 µM
5,COc1cc(C2c3sc(=O)[nH]c3SC3C(=O)N(c4ccc(Br)cc4)C(=O)C32)ccc1O (stereo unspecified),inactive: > 30 µM
6,CCN(C(=O)CN1CCCC(C)C1)c1c(N)n(Cc2ccccc2)c(=O)[nH]c1=O (stereo unspecified),inactive: > 30 µM
7,O=C(Cc1c(F)cccc1Cl)Nc1ncc([N+](=O)[O-])s1,inactive: > 30 µM
8,Cc1cc(/C=N\NC(=O)c2cccs2)c(C)n1-c1ccc2ncccc2c1,inactive: > 30 µM
9,Cc1nc(Nc2ccc(S(N)(=O)=O)cc2)oc1C,inactive: > 30 µM
10,CC1CCC2(CC1)NC(=O)N(CC(=O)Nc1ccc(C(N)=O)cc1)C2=O (stereo unspecified),inactive: > 30 µM
11,O=C(Nc1cccc(Cl)c1N1CCCC1)c1ccc(Br)o1,inactive: > 30 µM
12,CN(C)c1ccc(Nc2nc(N)c3ccccc3n2)cc1,active: 22.8 µM
13,CC1=C(C(=O)OCc2ccc3c(c2)OCO3)C(c2ccc(F)cc2)NC(=O)N1 (stereo unspecified),inactive: > 30 µM
14,O=C(Nc1ncc([N+](=O)[O-])s1)c1cccs1,inactive: > 30 µM
15,Cn1c(=O)c2c(-c3ccccc3)n(Cc3ccccn3)cc2n(C)c1=O,inactive: > 30 µM
16,CN1C(=O)/C(=C/c2ccc3c(c2)OCO3)N=C1c1ccccc1,inactive: > 30 µM
17,Cc1cnc(NC(=O)C2COc3ccccc3O2)s1 (stereo unspecified),inactive: > 30 µM
18,COc1cccc(/C=N/Nc2ccc([N+](=O)[O-])cn2)c1O,inactive: > 30 µM
19,COc1ccc(C=O)cc1OS(=O)(=O)c1ccccc1[N+](=O)[O-],inactive: > 30 µM
20,CC1(C)OC2OC(COC(=O)c3ccccc3)C3OC(C)(C)OC3C2O1 (stereo unspecified),inactive: > 30 µM
21,N#Cc1ccccc1Cn1cc(/C=N/Nc2ccc([N+](=O)[O-])cn2)c2ccccc21,inactive: > 30 µM
22,Cc1ccc2oc(=O)c3cnn(CC(=O)N4CCCCCC4)c3c2c1,inactive: > 30 µM
23,NC(=O)N/N=C/c1c(O)ccc2oc3c(c12)CCCC3,inactive: > 30 µM

# Structural class: those above containing a Cl atom.
row,SMILES,AC50
1,COc1cc(/C=N/NC(=O)c2ccc(COc3ccccc3Cl)o2)cc(Br)c1O,inactive: > 30 µM
16,S=C(Nc1ccc(Cl)cc1)Nc1cccc2cnccc12,inactive: > 30 µM
19,O=C(C1CCC1)N1CCC(c2nc3c(nnn3Cc3c(F)cccc3Cl)c(=O)[nH]2)CC1,inactive: > 30 µM
21,Cc1ccnc(NC(=O)Cc2c(F)cccc2Cl)c1,inactive: > 30 µM
7,O=C(Cc1c(F)cccc1Cl)Nc1ncc([N+](=O)[O-])s1,inactive: > 30 µM
11,O=C(Nc1cccc(Cl)c1N1CCCC1)c1ccc(Br)o1,inactive: > 30 µM

# Next compounds

row,SMILES,AC50
1,CC(=O)Nc1ccc(NS(=O)(=O)c2cccc3nonc23)cc1,inactive: > 30 µM
2,O=[N+]([O-])c1ccc(COc2ccccc2/C=N/O)cc1,inactive: > 30 µM
3,Cc1ccc(/C=N/NC(=O)c2nnn(-c3nonc3N)c2CN(C)C)s1,inactive: > 30 µM
4,COc1ccc(OCc2nc(N)nc(Nc3ccc(C)cc3)n2)cc1,inactive: > 30 µM
5,O=C(Cn1c(NCCCO)nc2ccccc21)c1ccc([N+](=O)[O-])cc1,inactive: > 30 µM
6,O=C(N/N=C/c1cccc(O)c1)N/N=C/c1cccc(O)c1,inactive: > 30 µM
7,O=C1CCCC2=C1C(c1ccc(Br)cc1)c1c([nH]c(=S)[nH]c1=O)N2 (stereo unspecified),inactive: > 30 µM
8,Cc1cccc(C)c1OCC(O)CNC(C)c1ccccc1 (stereo unspecified),inactive: > 30 µM
9,COc1ccc(CC(=O)Oc2ccc(C)cc2C)cc1,inactive: > 30 µM
10,COC(=O)c1sc(NC(=O)COc2ccc(OC)cc2)nc1C,inactive: > 30 µM
11,Cc1c(C(=O)OC2CCCCC2)[nH]c2c1C(=O)CC(C)(C)C2,inactive: > 30 µM
12,CCOC(=O)N1CCC(N2CCN(S(=O)(=O)c3ccc(NC(C)=O)cc3)CC2)CC1,inactive: > 30 µM
13,CCCC1=C(C(=O)OCC)C(c2ccc(O)cc2)n2ncnc2N1 (stereo unspecified),inactive: > 30 µM
14,OC(c1cc(C(F)(F)F)nc2c(Cl)cc(Cl)cc12)C1CCCCN1 (stereo unspecified),inactive: > 30 µM
15,CN1/C(=C/C=C(C#N)C#N)C(C)(C)c2ccccc21,inactive: > 30 µM
16,Cc1cccc(C)c1NC(=O)COC(=O)Cc1ccsc1,inactive: > 30 µM
17,COc1cccc(OC)c1C(=O)N1CCN(c2c(Cc3ccccc3)c(C)nc3ncnn23)CC1,inactive: > 30 µM
18,Cc1cccc(C(=O)Nc2cccc(C(=O)N/N=C/c3ccccn3)c2)c1,inactive: > 30 µM
19,CC(C)(C)NCC(O)COc1ccccc1C(C)(C)C (stereo unspecified),inactive: > 30 µM
20,O=C(Cn1ncc2c(=O)oc3ccccc3c21)N1CCc2ccccc2C1,inactive: > 30 µM
21,CCOCC(=O)Nc1nc2ccc(OC)cc2s1,inactive: > 30 µM
22,CCN1CCN(c2nc(Nc3ccc(C)c(C)c3)nc(N)c2[N+](=O)[O-])CC1,inactive: > 30 µM
23,CCOc1cc(/C=C2\SC(N3CCCC(C)C3)=NC2=O)ccc1O (stereo unspecified),inactive: > 30 µM

row,SMILES,AC50
1,COc1ccc(COC(=O)C2=C(C)NC(=O)NC2c2cccc(Br)c2)cc1 (stereo unspecified),inactive: > 30 µM
2,O=C(COc1ccccc1Br)NC1CC1,inactive: > 30 µM
3,N#CCC(=O)Nc1sc2c(c1C(N)=O)CCCC2,inactive: > 30 µM
4,Cn1c(=O)c2[nH]c(N3CCOCC3)nc2n(-c2ccccc2)c1=O,inactive: > 30 µM
5,CCN1CCN(c2c(Cl)cccc2NC(=O)c2ccc(Br)o2)CC1,inactive: > 30 µM
6,N#Cc1c(-c2ccccc2)nc(SCc2ccc(Cl)cc2)[nH]c1=O,inactive: > 30 µM
7,COc1cccc(Nc2nc(N)c([N+](=O)[O-])c(NCc3ccccc3)n2)c1,inactive: > 30 µM
8,CN1CCN(c2ccccc2NC(=O)c2ccc(-c3ccccc3[N+](=O)[O-])o2)CC1,inactive: > 30 µM
9,O=C(c1ccc(Cl)cc1)c1cnc(Nc2ccccc2Cl)s1,inactive: > 30 µM
10,N#Cc1c(Nc2ccccc2)c(C=NCCN2CCOCC2)c[nH]c1=O,inactive: > 30 µM
11,Cc1nnc(N/N=C/c2ccc(-c3ccc(Br)cc3)o2)n1N,inactive: > 30 µM
12,CCC(C)Nc1nc(N)c([N+](=O)[O-])c(N2CCCCCC2)n1 (stereo unspecified),inactive: > 30 µM
13,N#CC1=C2SCN(Cc3ccco3)CN2C(=O)CC1c1cccc2ccccc12 (stereo unspecified),inactive: > 30 µM
14,CCOc1cc(/C=N/O)ccc1OCc1ccc([N+](=O)[O-])cc1,inactive: > 30 µM
15,S=C(Nc1ccc2c(c1)OCCO2)Nc1ccccc1Cl,inactive: > 30 µM
16,Nc1nc2n(n1)C(c1ccc(Cl)cc1)CC(c1ccc(F)cc1)N2 (stereo unspecified),inactive: > 30 µM
17,COc1ccc(CC(=O)N2CCOCC2)cc1OC,inactive: > 30 µM
18,COc1ccc(-c2c(-c3ccccc3)c(C(=O)C(=O)NCCCN(C)C)n3ccc4cc(OC)c(OC)cc4c23)cc1OC,inactive: > 30 µM
19,CCOc1c(O)ccc(/C=C2\SC(=S)NC2=O)c1[N+](=O)[O-],inactive: > 30 µM
20,Cc1ccc(OCC(=O)N2CCN(c3nnc(-c4ccc(C)cc4)c4ccccc34)CC2)cc1,inactive: > 30 µM
21,COc1ccc(C(=O)C[n+]2cccc(Br)c2)cc1,inactive: > 30 µM
22,O=C(CNS(=O)(=O)c1ccccc1)N/N=C/c1ccc(O)cc1,inactive: > 30 µM
